PubChem BioAssay AID743121, NCATS, 2013
Here is one part, drawn at random, of about 26,000 reagents tested. In the full data, 167 (0.63%) are marked active. 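Calls are per gene from RSA p-values that are not deposited; an individual active-marked siRNA can sensitise only weakly.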 Reagents against one gene are numbered here. No sequences are given here.

Test: 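Partners whose loss is lethal together with topoisomerase I blockade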 (primary screen)
System: MDA-MB-231 cells, a human breast cancer line
Reagents: single siRNA against human genes, 20 nM siRNA (0.8 pmol per well)
Timing: 120 h (drug added 48 h after transfection, read 72 h later)
Conditions: camptothecin 20 nM (about EC30) for 72 h; vehicle 0.1% DMSO in parallel plates
Read-out: 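CellTiter-Glo ATP signal, scaled to control siRNA as percent viability; sensitisation given as log2 of untreated divided by camptothecin-treated viability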
Scale: log2 vehicle/camptothecin viability: higher = stronger sensitisation to camptothecin; viability with camptothecin and viability without drug: higher = more viable cells
Active means: 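Each gene scored by redundant siRNA activity (RSA) over its individual siRNA ratios; a gene is called active at p < 0.001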

gene knocked down	siRNA no.	log2 vehicle/camptothecin viability	viability with camptothecin (% of control)	viability without drug (% of control)	outcome
OLR1	1	-0.356	86.8	67.8	inactive
OLR1	2	0.0356	97.3	99.7	inactive
OLR1	3	-0.179	29	25.6	inactive
OLR1	4	-0.377	65.9	50.8	inactive
ITPR2	1	-0.158	118	106	inactive
ITPR2	2	-0.12	115	106	inactive
ITPR2	3	-0.337	56.7	44.9	inactive
ITPR2	4	-0.233	88.2	75.1	inactive
PIM3	1	-0.318	102	81.8	inactive
PIM3	2	-0.147	79.9	72.2	inactive
PIM3	3	-0.0367	96.4	94	inactive
PIM3	4	-0.286	97.7	80.1	inactive
PIM3	5	0.242	77.8	92	inactive
PIM3	6	-0.174	107	94.9	inactive
PTGS1	1	-0.225	43.7	37.4	inactive
PTGS1	2	-0.0624	79.1	75.7	inactive
PTGS1	3	-0.236	87.4	74.3	inactive
PTGS1	4	-0.177	85	75.2	inactive
DGKE	1	0.131	84.5	92.5	inactive
DGKE	2	-0.101	37.7	35.2	inactive
DGKE	3	-0.159	83.4	74.7	inactive
DGKE	4	-0.505	50.6	35.7	inactive
OR56B4	1	0.377	50.5	65.6	inactive
OR56B4	2	0.378	53.2	69.1	inactive
OR56B4	3	-0.339	123	97	inactive
OR56B4	4	0.00916	50.3	50.7	inactive
NUP62	1	-0.419	68.4	51.2	inactive
NUP62	2	-0.59	17.3	11.5	inactive
NUP62	3	0.154	15.7	17.4	inactive
NUP62	4	-0.235	73.5	62.4	inactive

Records above whose gene name begins with D or d (4):
gene knocked down	siRNA no.	log2 vehicle/camptothecin viability	viability with camptothecin (% of control)	viability without drug (% of control)	outcome
DGKE	1	0.131	84.5	92.5	inactive
DGKE	2	-0.101	37.7	35.2	inactive
DGKE	3	-0.159	83.4	74.7	inactive
DGKE	4	-0.505	50.6	35.7	inactive
